This passage reports binding results from publication PMC5322531.

Protein sequences, listed by entry. Tags and fused reporters are not part of them. Residues count along the entry.
UniProt Q9ULL4, residues 45-1909: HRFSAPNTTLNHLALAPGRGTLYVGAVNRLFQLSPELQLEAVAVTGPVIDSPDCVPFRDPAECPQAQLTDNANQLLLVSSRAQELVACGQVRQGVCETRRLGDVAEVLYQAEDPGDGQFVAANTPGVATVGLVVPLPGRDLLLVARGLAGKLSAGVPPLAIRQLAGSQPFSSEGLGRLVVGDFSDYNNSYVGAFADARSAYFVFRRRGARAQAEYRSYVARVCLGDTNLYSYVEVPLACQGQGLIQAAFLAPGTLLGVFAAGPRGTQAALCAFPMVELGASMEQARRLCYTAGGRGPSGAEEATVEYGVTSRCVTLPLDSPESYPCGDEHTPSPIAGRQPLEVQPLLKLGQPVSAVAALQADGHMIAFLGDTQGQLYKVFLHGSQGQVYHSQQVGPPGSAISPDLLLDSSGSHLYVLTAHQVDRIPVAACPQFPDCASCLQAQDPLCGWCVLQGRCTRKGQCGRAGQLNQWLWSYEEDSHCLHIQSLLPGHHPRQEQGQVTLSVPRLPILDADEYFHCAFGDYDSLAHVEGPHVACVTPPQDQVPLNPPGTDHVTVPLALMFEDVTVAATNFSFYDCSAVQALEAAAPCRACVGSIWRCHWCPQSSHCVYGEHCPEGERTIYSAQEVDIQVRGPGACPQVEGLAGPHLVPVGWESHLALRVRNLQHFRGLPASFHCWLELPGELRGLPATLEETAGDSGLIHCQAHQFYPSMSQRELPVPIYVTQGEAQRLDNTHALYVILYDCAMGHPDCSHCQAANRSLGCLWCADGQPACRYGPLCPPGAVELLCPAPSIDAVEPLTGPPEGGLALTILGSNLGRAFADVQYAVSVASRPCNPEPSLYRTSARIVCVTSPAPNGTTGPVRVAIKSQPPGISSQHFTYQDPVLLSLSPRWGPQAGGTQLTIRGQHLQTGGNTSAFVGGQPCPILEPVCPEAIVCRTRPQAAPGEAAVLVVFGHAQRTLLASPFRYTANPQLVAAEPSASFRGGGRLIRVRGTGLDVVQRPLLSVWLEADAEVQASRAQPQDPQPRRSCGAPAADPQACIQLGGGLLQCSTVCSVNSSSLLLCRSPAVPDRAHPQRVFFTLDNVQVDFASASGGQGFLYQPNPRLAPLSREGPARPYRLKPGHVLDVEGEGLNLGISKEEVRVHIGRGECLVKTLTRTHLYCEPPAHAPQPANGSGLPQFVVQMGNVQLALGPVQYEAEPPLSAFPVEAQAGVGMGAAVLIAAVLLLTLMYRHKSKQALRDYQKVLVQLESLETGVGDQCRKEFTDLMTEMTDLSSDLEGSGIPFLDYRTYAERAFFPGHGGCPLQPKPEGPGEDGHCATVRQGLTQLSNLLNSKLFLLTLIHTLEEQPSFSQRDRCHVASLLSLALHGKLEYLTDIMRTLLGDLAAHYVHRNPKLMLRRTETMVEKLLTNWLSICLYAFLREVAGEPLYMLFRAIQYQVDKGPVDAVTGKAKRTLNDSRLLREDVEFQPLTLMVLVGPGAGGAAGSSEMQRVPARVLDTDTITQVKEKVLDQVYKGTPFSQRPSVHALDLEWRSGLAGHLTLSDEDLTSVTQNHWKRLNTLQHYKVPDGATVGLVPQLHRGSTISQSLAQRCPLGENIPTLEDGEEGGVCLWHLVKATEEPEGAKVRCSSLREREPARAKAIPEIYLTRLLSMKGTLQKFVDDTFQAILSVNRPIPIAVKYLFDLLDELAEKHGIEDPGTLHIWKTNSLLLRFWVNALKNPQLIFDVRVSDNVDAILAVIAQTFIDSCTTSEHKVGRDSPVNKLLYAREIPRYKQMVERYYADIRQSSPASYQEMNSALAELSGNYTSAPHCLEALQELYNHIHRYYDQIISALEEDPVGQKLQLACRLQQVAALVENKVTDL
UniProt O43157, residues 20-2135: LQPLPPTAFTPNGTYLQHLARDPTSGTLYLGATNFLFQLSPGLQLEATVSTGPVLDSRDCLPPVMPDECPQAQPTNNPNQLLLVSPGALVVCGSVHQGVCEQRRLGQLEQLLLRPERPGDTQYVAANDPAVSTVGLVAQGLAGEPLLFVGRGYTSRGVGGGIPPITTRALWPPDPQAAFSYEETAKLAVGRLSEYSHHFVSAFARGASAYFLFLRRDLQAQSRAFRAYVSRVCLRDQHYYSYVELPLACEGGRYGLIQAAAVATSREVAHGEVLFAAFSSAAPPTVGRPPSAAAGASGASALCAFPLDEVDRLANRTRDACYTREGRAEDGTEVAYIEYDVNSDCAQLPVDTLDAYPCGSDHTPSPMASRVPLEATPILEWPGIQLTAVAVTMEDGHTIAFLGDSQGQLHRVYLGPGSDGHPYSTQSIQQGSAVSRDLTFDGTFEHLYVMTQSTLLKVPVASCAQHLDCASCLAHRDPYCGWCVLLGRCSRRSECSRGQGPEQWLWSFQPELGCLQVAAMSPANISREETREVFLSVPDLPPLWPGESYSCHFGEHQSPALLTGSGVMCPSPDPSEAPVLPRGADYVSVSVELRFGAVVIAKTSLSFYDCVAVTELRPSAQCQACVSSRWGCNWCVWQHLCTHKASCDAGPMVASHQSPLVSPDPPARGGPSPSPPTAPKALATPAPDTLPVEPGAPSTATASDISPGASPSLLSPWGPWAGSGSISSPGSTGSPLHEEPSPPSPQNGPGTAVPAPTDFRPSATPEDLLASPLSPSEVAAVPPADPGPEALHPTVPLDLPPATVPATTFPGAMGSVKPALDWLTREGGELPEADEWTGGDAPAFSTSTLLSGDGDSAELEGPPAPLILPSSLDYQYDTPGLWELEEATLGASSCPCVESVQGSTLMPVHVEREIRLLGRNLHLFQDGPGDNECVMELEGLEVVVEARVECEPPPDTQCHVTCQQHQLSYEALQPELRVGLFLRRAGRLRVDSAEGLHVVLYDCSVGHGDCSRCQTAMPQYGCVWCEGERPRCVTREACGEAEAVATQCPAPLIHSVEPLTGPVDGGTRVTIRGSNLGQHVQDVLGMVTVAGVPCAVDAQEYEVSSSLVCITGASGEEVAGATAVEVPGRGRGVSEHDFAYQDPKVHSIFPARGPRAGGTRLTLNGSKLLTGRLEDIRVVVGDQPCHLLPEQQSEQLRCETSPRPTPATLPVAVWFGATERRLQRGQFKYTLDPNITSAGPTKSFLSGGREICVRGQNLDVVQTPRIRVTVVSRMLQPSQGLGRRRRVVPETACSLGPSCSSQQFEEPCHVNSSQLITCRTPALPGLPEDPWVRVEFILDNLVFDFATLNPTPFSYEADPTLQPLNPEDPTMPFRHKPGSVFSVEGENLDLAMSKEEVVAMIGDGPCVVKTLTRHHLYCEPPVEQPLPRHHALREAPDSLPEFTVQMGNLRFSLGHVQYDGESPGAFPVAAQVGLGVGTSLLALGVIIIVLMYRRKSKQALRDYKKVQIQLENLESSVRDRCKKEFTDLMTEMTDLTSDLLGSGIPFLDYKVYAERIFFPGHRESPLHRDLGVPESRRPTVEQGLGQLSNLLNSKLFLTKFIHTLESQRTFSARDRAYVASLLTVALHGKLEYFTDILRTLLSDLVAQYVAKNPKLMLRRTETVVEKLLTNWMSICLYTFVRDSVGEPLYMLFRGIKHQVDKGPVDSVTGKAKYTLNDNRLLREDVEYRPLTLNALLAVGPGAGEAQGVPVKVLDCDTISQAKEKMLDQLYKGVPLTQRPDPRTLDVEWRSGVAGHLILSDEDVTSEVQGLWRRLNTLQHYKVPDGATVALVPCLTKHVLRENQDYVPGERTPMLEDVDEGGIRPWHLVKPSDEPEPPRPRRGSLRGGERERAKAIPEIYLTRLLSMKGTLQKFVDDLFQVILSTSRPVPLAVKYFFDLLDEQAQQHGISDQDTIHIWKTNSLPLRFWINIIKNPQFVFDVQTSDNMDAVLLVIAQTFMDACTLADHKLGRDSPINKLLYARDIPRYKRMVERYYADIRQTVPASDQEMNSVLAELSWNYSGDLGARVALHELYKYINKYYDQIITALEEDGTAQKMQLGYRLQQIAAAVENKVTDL
UniProt O15031, residues 20-1838: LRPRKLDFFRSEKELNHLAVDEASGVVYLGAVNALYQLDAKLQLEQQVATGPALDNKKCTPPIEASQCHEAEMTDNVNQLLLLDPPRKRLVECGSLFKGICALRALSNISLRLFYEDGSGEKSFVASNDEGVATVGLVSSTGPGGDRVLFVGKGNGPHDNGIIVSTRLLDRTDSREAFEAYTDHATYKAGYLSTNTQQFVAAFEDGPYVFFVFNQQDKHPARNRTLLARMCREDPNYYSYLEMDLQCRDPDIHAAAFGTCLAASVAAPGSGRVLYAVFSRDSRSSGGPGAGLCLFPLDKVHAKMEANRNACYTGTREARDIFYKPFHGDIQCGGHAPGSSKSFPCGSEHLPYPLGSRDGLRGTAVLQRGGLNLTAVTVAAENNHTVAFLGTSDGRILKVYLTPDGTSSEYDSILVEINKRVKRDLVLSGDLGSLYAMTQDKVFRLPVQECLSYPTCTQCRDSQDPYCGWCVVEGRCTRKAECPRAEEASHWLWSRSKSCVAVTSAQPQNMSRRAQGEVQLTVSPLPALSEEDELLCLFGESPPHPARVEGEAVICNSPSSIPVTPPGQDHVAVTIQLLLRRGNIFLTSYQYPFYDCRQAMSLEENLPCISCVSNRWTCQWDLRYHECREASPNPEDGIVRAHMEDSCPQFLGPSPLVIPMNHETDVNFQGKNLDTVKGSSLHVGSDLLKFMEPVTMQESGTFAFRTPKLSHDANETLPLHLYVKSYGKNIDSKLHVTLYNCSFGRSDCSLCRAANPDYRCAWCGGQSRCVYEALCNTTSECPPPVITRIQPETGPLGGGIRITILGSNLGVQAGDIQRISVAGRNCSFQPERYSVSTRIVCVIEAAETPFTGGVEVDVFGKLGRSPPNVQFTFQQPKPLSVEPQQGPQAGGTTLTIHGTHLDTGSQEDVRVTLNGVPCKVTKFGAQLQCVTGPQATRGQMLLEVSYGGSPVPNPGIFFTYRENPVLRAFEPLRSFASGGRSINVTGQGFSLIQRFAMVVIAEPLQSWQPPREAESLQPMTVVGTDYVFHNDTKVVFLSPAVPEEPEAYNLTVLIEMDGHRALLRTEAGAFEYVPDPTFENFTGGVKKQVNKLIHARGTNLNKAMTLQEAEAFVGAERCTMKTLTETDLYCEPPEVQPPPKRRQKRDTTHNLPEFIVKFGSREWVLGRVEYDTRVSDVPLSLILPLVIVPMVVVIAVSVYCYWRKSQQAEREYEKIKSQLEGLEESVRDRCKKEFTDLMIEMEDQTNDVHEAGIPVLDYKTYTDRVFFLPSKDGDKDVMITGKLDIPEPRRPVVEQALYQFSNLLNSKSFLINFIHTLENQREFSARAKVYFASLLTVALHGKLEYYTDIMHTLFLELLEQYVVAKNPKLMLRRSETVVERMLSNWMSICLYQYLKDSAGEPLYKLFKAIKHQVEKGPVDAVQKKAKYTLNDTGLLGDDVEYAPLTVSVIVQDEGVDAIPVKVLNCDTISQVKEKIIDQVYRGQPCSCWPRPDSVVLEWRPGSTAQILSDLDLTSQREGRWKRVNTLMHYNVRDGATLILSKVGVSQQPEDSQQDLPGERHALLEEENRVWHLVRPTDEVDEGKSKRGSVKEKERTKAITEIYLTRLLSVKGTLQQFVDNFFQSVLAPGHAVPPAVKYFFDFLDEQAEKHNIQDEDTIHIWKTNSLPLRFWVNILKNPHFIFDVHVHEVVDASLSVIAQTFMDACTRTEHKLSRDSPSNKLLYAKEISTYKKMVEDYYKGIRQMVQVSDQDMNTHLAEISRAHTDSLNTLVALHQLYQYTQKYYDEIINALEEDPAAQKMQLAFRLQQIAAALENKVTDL

No constants are given. Whether binding was seen depends on the method and setting. For some of these results: Binding seen in cells or lysates may run through a third protein. Sequences can lack the tags named with a protein. Some entries that bind do so weakly or less than the wild type.

For one assay, the target named is T1, FLAG-GIPC1 (UniProt O14908).
T1 sequence: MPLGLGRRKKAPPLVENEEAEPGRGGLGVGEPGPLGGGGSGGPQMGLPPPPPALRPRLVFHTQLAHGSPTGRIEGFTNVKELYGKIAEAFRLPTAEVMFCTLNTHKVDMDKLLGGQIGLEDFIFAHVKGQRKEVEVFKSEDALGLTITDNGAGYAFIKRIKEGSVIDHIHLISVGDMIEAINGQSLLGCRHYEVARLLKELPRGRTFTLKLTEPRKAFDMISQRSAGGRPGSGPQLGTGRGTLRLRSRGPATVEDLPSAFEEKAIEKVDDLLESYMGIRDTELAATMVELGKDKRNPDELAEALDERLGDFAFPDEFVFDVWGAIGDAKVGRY
Put plainly: co-IP; HEK293T cells transfected with Flag-GIPC1 and/or VSV-tagged plexins; lysates 2 days after transfection immunoprecipitated with ANTI-FLAG M2 Affinity Gel or VSV-G tag antibody agarose, western blot; interaction said to be ligand-independent. In general terms: In western blotting, separated proteins are transferred to a membrane and probed.

Assay [1] has as its target VSV-Plexin-D1 on COS7 cells (human) (UniProt Q9Y4D7). Put plainly: binding of an alkaline phosphatase-tagged ligand to transfected cells; AP-Sema3E (conditioned medium of HEK293T cells) on transfected COS7 cells, conventional methods (ref. 16).

On to “VSV-PlexinB3 (from UniProt Q9ULL4 45-1909) (receptor)”, for which the binding entry with FLAG-GIPC1 is listed as “no binding”.

Take “VSV-PlexinB1 (from UniProt O43157 20-2135) (receptor)”: the binding entry with FLAG-GIPC1 is “no binding”.

Regarding “VSV-PlexinB2 (from UniProt O15031 20-1838) (receptor)”, the binding result in the assay with FLAG-GIPC1 was “no binding”.

B1: mouse AP-Sema3E-6xHis (ligand, UniProt P70275 26-775)
chain: ANPSYPRLRLSHKELLELNRTSIFQSPLGFLDLHTMLLDEYQERLFVGGRDLVYSLNLERVSDGYREIYWPSTAVKVEECIMKGKDANECANYIRVLHHYNRTHLLTCATGAFDPHCAFIRVGHHSEEPLFHLESHRSERGRGRCPFDPNSSFVSTLVGNELFAGLYSDYWGRDSAIFRSMGKLGHIRTEHDDERLLKEPKFVGSYMIPDNEDRDDNKMYFFFTEKALEAENNAHTIYTRVGRLCVNDMGGQRILVNKWSTFLKARLVCSVPGMNGIDTYFDELEDVFLLPTRDPKNPVIFGLFNTTSNIFRGHAVCVYHMSSIREAFNGPYAHKEGPEYHWSLYEGKVPYPRPGSCASKVNGGKYGTTKDYPDDAIRFARMHPLMYQPIKPVHKKPILVKTDGKYNLRQLAVDRVEAEDGQYDVLFIGTDTGIVLKVITIYNQETEWMEEVILEELQIFKDPAPIISMEISSKRQQLYIGSASAVAQVRFHHCDMYGSACADCCLARDPYCAWDGISCSRYYPTGAHAKRRFRRQDVRHGNAAQQCFGQQFVGDALDRTEERLAYGIESNSTLLECTPRSLQAKVIWFVQKGRDVRKEEVKTDDRVVKMDLGLLFLRVRKSDAGTYFCQTVEHNFVHTVRKITLEVVEEHKVEGMFHKDHEEERHHKMPCPPLSGMSQGTKPWYKEFLQLIGYSNFQRVEEYCEKVWCTDKKRKKLKMSPSKWKYANPQEKRLRSKAEHFRLPRHTLLS
For the molecule B1, the binding entry in assay [1] is on record as “binds”.
